Laboratory results as given in paper PMC7616163.
No constants are given. Whether binding was seen depends on the method and setting. Binding seen in cells or lysates may run through a third protein. Some binding calls cover weakened binding; strength is not graded here.

Sequences of proteins named here, by UniProt entry; tags and fusion partners are left off.
UniProt P08173: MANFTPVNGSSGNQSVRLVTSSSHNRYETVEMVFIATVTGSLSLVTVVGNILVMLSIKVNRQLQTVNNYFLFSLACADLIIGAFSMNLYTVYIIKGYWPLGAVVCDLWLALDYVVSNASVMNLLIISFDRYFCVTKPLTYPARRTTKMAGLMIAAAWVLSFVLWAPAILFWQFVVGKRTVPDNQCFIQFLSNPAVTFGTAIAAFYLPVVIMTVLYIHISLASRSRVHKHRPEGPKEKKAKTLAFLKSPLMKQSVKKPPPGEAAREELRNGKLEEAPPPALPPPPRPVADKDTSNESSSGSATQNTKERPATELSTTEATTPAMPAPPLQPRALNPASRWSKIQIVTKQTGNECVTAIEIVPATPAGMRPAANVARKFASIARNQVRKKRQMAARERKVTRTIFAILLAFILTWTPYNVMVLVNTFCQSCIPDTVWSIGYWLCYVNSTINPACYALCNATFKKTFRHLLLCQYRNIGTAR
UniProt P32121: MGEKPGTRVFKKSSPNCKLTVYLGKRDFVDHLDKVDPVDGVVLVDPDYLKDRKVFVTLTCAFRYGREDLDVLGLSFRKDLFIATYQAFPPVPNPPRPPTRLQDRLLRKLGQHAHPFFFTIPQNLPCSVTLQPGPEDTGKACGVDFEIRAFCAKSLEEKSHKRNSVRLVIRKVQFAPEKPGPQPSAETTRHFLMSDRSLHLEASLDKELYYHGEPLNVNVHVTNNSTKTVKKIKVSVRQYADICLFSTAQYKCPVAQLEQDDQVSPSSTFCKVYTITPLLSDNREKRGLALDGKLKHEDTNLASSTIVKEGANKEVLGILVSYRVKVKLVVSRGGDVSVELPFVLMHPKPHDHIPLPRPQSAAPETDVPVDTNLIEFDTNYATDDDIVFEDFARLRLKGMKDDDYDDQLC

Target: human M4 mAChR-Rluc8 (human) (UniProt P08173)
Assay: FRET or BRET; FlpInCHO cells transiently co-expressing M4 mAChR-Rluc8 and β-arrestin-2-eYFP; HBSS pH 7.4; coelenterazine h 5 μM; ACh and PAMs co-added for 5 min at 37 °C; read on LUMIstar Omega

binding: binds
Substance: β-arrestin-2-eYFP (from UniProt P32121 1-409)
